No constants are given. Whether binding was seen depends on the method and setting. Binding seen in cells or lysates may run through a third protein. Binding calls can cover weak binding; strength is not graded here. Tags and fused reporters may be left off the sequences shown.

By UniProt entry, the sequences of proteins in these tests, tags left out. Where a name states a change or a piece, a line headed by the entry shows the natural chain unless it says otherwise.
UniProt Q9UUE3: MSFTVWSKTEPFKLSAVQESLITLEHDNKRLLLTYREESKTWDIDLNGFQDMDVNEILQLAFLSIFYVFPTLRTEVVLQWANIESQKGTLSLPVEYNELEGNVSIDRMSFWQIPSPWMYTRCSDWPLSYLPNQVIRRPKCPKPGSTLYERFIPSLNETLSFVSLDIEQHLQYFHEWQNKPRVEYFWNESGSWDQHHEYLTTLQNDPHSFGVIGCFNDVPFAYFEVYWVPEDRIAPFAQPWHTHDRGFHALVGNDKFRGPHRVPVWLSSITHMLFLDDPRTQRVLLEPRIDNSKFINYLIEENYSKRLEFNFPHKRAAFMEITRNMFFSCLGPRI

Holding throughout (test): co-IP; TAP-tagged Sib3 or a derivative captured on IgG-Sepharose 6 Fast-Flow beads (2 h, 4°C) from whole-cell extracts of S. pombe sib2Δ sib3Δ cells co-expressing GFP-tagged Sib2 or a derivative; cells treated with the iron chelator Dip (250 μM; 90 min or 3 h as printed); lysis buffer 50 mM HEPES pH 7.5, 140 mM NaCl, 1% Triton X-100; washes with 500 mM NaCl and 250 mM LiCl; immunoblot with anti-GFP, anti-mouse IgG and anti-α-tubulin
For orientation: A western blot detects proteins with antibodies after separation by electrophoresis.

Assay [1] addresses Sib3-TAP (full-length wild-type N5-hydroxyornithine-N5-transacetylase Sib3, TAP-tagged) (S. pombe) (UniProt Q9UUE3).
Another assay has as its target Sib3H248A-TAP (S. pombe) (UniProt Q9UUE3).
The next assay deals with Sib3E286A-TAP (S. pombe) (UniProt Q9UUE3).

B1: 1Sib2135-GFP (domain or fragment, UniProt Q9P7T0 1-135)
chain: MTEPLDLAIIGFGPASLSFLIALHDHSEEPLKNKKIRVFEKLPTFSWHEGMLIPGSNMQISFVKDLATPRDPTSYFTFLNYLHSHGQERLSGFLNMSTLEPSRYEYHDYLCWAASHFSKFVEYNANINKLHYDAA
Regarding B1, the binding result in assay [1] is on record as “binds”.

B2: 281Sib2358-GFP (domain or fragment, UniProt Q9P7T0 281-358)
chain: MLLEEMFKECYLQKLRYGQEFHQIMGDTDIQSIKNEGDHLVVQLTSQMDKSKKPETRKIDVLYVATGYDHESFDVLMSS
Consider B2, for which the binding entry in assay [1] was “binds”.

B3: 1Sib2279-GFP (domain or fragment, UniProt Q9P7T0 1-279)
chain: MTEPLDLAIIGFGPASLSFLIALHDHSEEPLKNKKIRVFEKLPTFSWHEGMLIPGSNMQISFVKDLATPRDPTSYFTFLNYLHSHGQERLSGFLNMSTLEPSRYEYHDYLCWAASHFSKFVEYNANINKLHYDAATDLYIVGHGDTQWQAKNIIITTGCQPYIPPLYKSVDSPLIVHSSKFMSDHSQKLLRNSKHGILVVGCGQSAAEIWKHCHYSLDPKTPLAMCFRNLAPVPSDSSPFVNSLYFDSHNSHWWYNLPTEARLKGLSVGRTTNYSVVKE
On to B3, for which the binding result in assay [1] is on record as “binds”.

B4: 149Sib2345-GFP (domain or fragment, UniProt Q9P7T0 149-345)
chain: MQAKNIIITTGCQPYIPPLYKSVDSPLIVHSSKFMSDHSQKLLRNSKHGILVVGCGQSAAEIWKHCHYSLDPKTPLAMCFRNLAPVPSDSSPFVNSLYFDSHNSHWWYNLPTEARLKGLSVGRTTNYSVVKESLLEEMFKECYLQKLRYGQEFHQIMGDTDIQSIKNEGDHLVVQLTSQMDKSKKPETRKIDVLYVAT
In the case of B4, the binding result in assay [1] was “binds”.

B5: Sib2-GFP (full-length ornithine-N5-oxygenase Sib2, GFP-tagged) (enzyme, UniProt Q9P7T0 1-431)
chain: MTEPLDLAIIGFGPASLSFLIALHDHSEEPLKNKKIRVFEKLPTFSWHEGMLIPGSNMQISFVKDLATPRDPTSYFTFLNYLHSHGQERLSGFLNMSTLEPSRYEYHDYLCWAASHFSKFVEYNANINKLHYDAATDLYIVGHGDTQWQAKNIIITTGCQPYIPPLYKSVDSPLIVHSSKFMSDHSQKLLRNSKHGILVVGCGQSAAEIWKHCHYSLDPKTPLAMCFRNLAPVPSDSSPFVNSLYFDSHNSHWWYNLPTEARLKGLSVGRTTNYSVVKESLLEEMFKECYLQKLRYGQEFHQIMGDTDIQSIKNEGDHLVVQLTSQMDKSKKPETRKIDVLYVATGYDHESFDVLMSSLFPNSQGAQISEEYCVLNAPSKQGKVYVAGITSNQHGIGETLLSWAAIRAGGLAKELFGPSKPTARVPASYLN
Turning to B5, the binding result (with Sib3H248A-TAP (S. pombe); in assay [1]; in the assay with Sib3E286A-TAP (S. pombe)) was “binds” each time.

B6: 82Sib2431-GFP (domain or fragment, UniProt Q9P7T0 82-431)
chain: MLHSHGQERLSGFLNMSTLEPSRYEYHDYLCWAASHFSKFVEYNANINKLHYDAATDLYIVGHGDTQWQAKNIIITTGCQPYIPPLYKSVDSPLIVHSSKFMSDHSQKLLRNSKHGILVVGCGQSAAEIWKHCHYSLDPKTPLAMCFRNLAPVPSDSSPFVNSLYFDSHNSHWWYNLPTEARLKGLSVGRTTNYSVVKESLLEEMFKECYLQKLRYGQEFHQIMGDTDIQSIKNEGDHLVVQLTSQMDKSKKPETRKIDVLYVATGYDHESFDVLMSSLFPNSQGAQISEEYCVLNAPSKQGKVYVAGITSNQHGIGETLLSWAAIRAGGLAKELFGPSKPTARVPASYLN
On to B6, for which the binding result in assay [1] was “binds”.

B7: 174Sib2431-GFP (domain or fragment, UniProt Q9P7T0 174-431)
chain: MLIVHSSKFMSDHSQKLLRNSKHGILVVGCGQSAAEIWKHCHYSLDPKTPLAMCFRNLAPVPSDSSPFVNSLYFDSHNSHWWYNLPTEARLKGLSVGRTTNYSVVKESLLEEMFKECYLQKLRYGQEFHQIMGDTDIQSIKNEGDHLVVQLTSQMDKSKKPETRKIDVLYVATGYDHESFDVLMSSLFPNSQGAQISEEYCVLNAPSKQGKVYVAGITSNQHGIGETLLSWAAIRAGGLAKELFGPSKPTARVPASYLN
On to B7, for which, in assay [1], the binding entry is “binds”.

B8: 1Sib2349-GFP (domain or fragment, UniProt Q9P7T0 1-349)
chain: MTEPLDLAIIGFGPASLSFLIALHDHSEEPLKNKKIRVFEKLPTFSWHEGMLIPGSNMQISFVKDLATPRDPTSYFTFLNYLHSHGQERLSGFLNMSTLEPSRYEYHDYLCWAASHFSKFVEYNANINKLHYDAATDLYIVGHGDTQWQAKNIIITTGCQPYIPPLYKSVDSPLIVHSSKFMSDHSQKLLRNSKHGILVVGCGQSAAEIWKHCHYSLDPKTPLAMCFRNLAPVPSDSSPFVNSLYFDSHNSHWWYNLPTEARLKGLSVGRTTNYSVVKESLLEEMFKECYLQKLRYGQEFHQIMGDTDIQSIKNEGDHLVVQLTSQMDKSKKPETRKIDVLYVATGYDH
With B8, in assay [1], the binding result is reported as “binds”.

(Values after paper PMC11424930.)
